This is one part of the list. Further columns of the screen follow, without active or inactive calls. The list favours compounds with an active or inconclusive main result. The note in brackets gives the kind of curve behind each potency; many fits are weak.
Assay: qHTS Assay for Lipid Storage Modulators in Drosophila S3 Cells;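 on cell number change: cells counted by Cell Tracker Red CMTPX staining in the red channel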
Settings: BODIPY lipid droplet fluorescence, 18-24 h; for cell number change: measured here: cell count max response, cells fed with added oleic acid
In short: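 Drosophila S3 cells got compounds at several concentrations plus oleic acid (400 uM solution). Laser-scanning cytometry with 488 nm excitation read lipid droplets at 500-530 nm and cells at 575-640 nm. Percent activity was relative to 20 uM Triacsin C.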

[1] = measured here: cell number channel AC50, cells fed with added oleic acid
[2] = measured here: lipid fluorescence (Fed channel) AC50, cells fed with added oleic acid

Row | Structure (SMILES) | cell number change | AC50 [1] | AC50 [2]
1 | Cc1nn(CC(=O)N(C)C)c(C)c1S(=O)(=O)N1CCOCC1 | -0.278% | 0.092 µM [rising, full curve, poor fit] | –
2 | c1ccc(-c2nccc(-c3ccc4c(c3)OCO4)n2)cc1 | – | 0.184 µM [rising, full curve, poor fit] | 0.291 µM [rising, partial curve, poor fit]
3 | CCO[C@H]1OC(C(=O)Nc2ccccc2)=C[C@@H](c2ccc(C(F)(F)F)cc2)[C@@H]1CCCO | -9.14% | – | 29.1 µM [falling, single point]
4 | N=C1/C(=C/c2ccc(-c3cccc(C(=O)O)c3)o2)C(=O)N=C2SC=C(c3ccccc3)N12 | -8.27% | 0.0206 µM [falling, full curve, poor fit] | 3.26 µM [falling, single point]
5 | O=C(OCC(=O)N1CCCc2ccccc21)c1ccc(C(F)(F)F)cc1 | -17.2% | – | 3.66 µM [falling, single point]
6 | CCOC(=O)N1CCN(c2nc(C)c3c(n2)CCCC3=O)CC1 | – | – | 1.16 µM [falling, full curve]
7 | O=C(Cn1c(-c2ccc(Cl)cc2)noc1=O)N1CCN(c2ccccc2F)CC1 | -6.98% | – | 0.13 µM [falling, full curve, poor fit]
8 | c1ccc2c(c1)OCC(c1csc3ncnc(N4CCOCC4)c13)O2 (stereo not drawn) | 24.1% | – | –
9 | CC(/C=C/c1ccco1)=N\NC(=O)C(O)c1ccccc1 (stereo not drawn) | -7.06% | – | 1.84 µM [rising, partial curve]
10 | O=C(CSc1ccc2c(c1)OCCO2)Nc1ccc(Cl)cn1 | -0.65% | – | 3.66 µM [rising, single point]
11 | COc1ccc(CCNc2cc(N3CCN(C(=O)c4ccc(C)cc4)CC3)ccc2[N+](=O)[O-])cc1OC | 13.5% | 6.51 µM [falling, single point] | 6.51 µM [falling, single point]
12 | COC(c1ccccc1)c1nnc(CCC(=O)NCCC(C)C)o1 (stereo not drawn) | -31.5% | 8.2 µM [falling, partial curve, poor fit] | 16.4 µM [falling, single point]
13 | Cc1ccccc1NC(=O)COc1coc(CN2CCN(Cc3ccccc3)CC2)cc1=O | – | 6.51 µM [falling, single point] | 0.00411 µM [rising, full curve, poor fit]
14 | Cc1ccc(NC(=O)c2oc3c(c2C)C(=O)CC(C)(C)C3)cc1 | 11.7% | – | 6.51 µM [rising, single point]
15 | NC(=O)C1CCN(C(=O)c2ccc(Oc3ccccc3)cc2)CC1 | – | – | 0.116 µM [falling, full curve, poor fit]
16 | COc1ccc(Br)cc1CN(C)CC(O)COc1ccc(Br)cc1 (stereo not drawn) | 3.81% | – | –
17 | Cc1nc2c(sc(=S)n2Cc2ccco2)c(=O)n1CC(=O)Nc1ccccc1F | 7.03% | – | 18.4 µM [rising, single point]
18 | CCOc1ccc(-n2c(Cc3cc(=O)[nH]c(=O)[nH]3)nnc2SCc2cccnc2)cc1 | -3.29% | – | 1.84 µM [falling, partial curve]
19 | O=C(COC(=O)c1ccccn1)NC1CCCCC1 | 7.36% | 6.51 µM [rising, single point] | –
20 | O=c1[nH]c(/C=C\c2cccc(C(F)(F)F)c2)nc(O)c1[N+](=O)[O-] | -4.56% | – | 0.116 µM [rising, full curve, poor fit]

Row | Structure (SMILES) | cell number change | AC50 [1] | AC50 [2]
21 | C=CCn1c(SCc2c(C(=O)OC)sc(N)c2C(=O)OC)nnc1-c1ccc(Br)cc1 | 85.1% | 1.84 µM [rising, partial curve, poor fit] | 14.6 µM [rising, partial curve, poor fit]
22 | N#CCc1ccc(NS(=O)(=O)c2cccs2)cc1 | -22.4% | – | 29.1 µM [falling, single point]
23 | Cc1ccc(Nc2nnc(SCC(=O)Nc3cc(C(=O)O)ccc3C)s2)c(C)c1 | -41.7% | 16.4 µM [falling, single point] | –
24 | COc1cc(NC(=S)N2CCN(CCO)CC2)c(OC)cc1Cl | -13.5% | – | 0.326 µM [rising, partial curve]
25 | O=C1N(CN2CCOCC2)c2ccccc2C12OCC(CCl)O2 (stereo not drawn) | 1.39% | – | 0.082 µM [rising, full curve, poor fit]
26 | NC1=NC(=O)/C(=C/c2ccc(OCC(=O)O)cc2)S1 | 7.79% | – | 2.91 µM [rising, single point]
27 | N#CCCn1c(C2CCCCC2)nc2ccccc21 | 11.3% | – | 0.146 µM [falling, full curve, poor fit]
28 | COc1cccc(C(C)NC(=O)Nc2ccccc2Cl)c1 (stereo not drawn) | -19% | – | 29.1 µM [falling, single point]
29 | CC(C)CCC(C)N=Cc1c(O)n(Cc2ccccc2)c(=O)c2ccccc12 (stereo not drawn) | 40.5% | 7.31 µM [rising, partial curve] | –
30 | NS(=O)(=O)c1ccc(CCN=Cc2ccccc2O)cc1 | -13.6% | – | 0.366 µM [falling, full curve, poor fit]
31 | CC(=O)c1ccc(N2CCN(CC(=O)Nc3cc(C)on3)CC2)cc1 | 31.5% | 16.4 µM [rising, single point] | 14.6 µM [rising, single point]
32 | C/C(=N\Nc1cccc(Cl)c1)c1ccncc1 | – | 2.31 µM [rising, single point] | 3.26 µM [rising, single point]
33 | O=C(Cc1ccccc1[N+](=O)[O-])NCCCN1CCOCC1 | 114% | 23.1 µM [rising, single point] | –
34 | Cc1cc(=O)n2nc(N3CCCC(C(=O)NCCc4ccc(Cl)cc4)C3)sc2n1 (stereo not drawn) | – | – | 6.51 µM [falling, single point]
35 | NNC(=O)c1ccc(CSc2nc3ccccc3s2)cc1 | 9.33% | – | –
36 | CSc1nc(Oc2ccc3ccccc3c2)c2sccc2n1 | 17.3% | – | –
37 | Cc1cccc(C)c1NC(=O)CNC(=O)Cc1ccccc1[N+](=O)[O-] | 11.7% | – | 0.58 µM [falling, partial curve, poor fit]
38 | Cc1c(NC(=O)c2cccc(NC(=O)Cc3ccccc3F)c2)c(=O)n(-c2ccccc2)n1C | 6.41% | – | 0.231 µM [rising, full curve, poor fit]
39 | COc1ccc(-c2cc(=O)oc3c(C)c(OCC(=O)N[C@@H](Cc4ccc(O)cc4)C(=O)O)ccc23)cc1 | -6.4% | – | –
40 | Cc1ccccc1-c1nnc(-c2ccc(Cl)cc2)o1 | 90.9% | 16.4 µM [rising, partial curve, poor fit] | –

Record cards, from the list above.
Cc1cccc(C)c1NC(=O)CNC(=O)Cc1ccccc1[N+](=O)[O-] is listed with cell number change: 11.7%; AC50 [2]: 0.58 µM [falling, partial curve, poor fit]
COc1cccc(C(C)NC(=O)Nc2ccccc2Cl)c1 (stereo not drawn) is listed with cell number change: -19%; AC50 [2]: 29.1 µM [falling, single point]
COc1ccc(-c2cc(=O)oc3c(C)c(OCC(=O)N[C@@H](Cc4ccc(O)cc4)C(=O)O)ccc23)cc1 is listed with cell number change: -6.4%

Additional compounds follow:

Row | Structure (SMILES) | cell number change | AC50 [1] | AC50 [2]
41 | CCN(CC(=O)NCc1ccccn1)S(=O)(=O)c1ccc(OC)cc1 | 2.94% | – | 6.51 µM [falling, single point]
42 | N#Cc1ccsc1NC(=O)C1CCN(C(=O)c2ccc(Cl)cc2)CC1 | 54.9% | 29.1 µM [rising, single point] | –
43 | FC(F)(F)c1ccc(N2CCN(c3ncnc4c3nnn4Cc3ccccc3)CC2)nc1 | -0.444% | 0.58 µM [falling, full curve, poor fit] | 0.92 µM [rising, partial curve]
44 | COc1ccc(S(=O)(=O)Nc2cc3c4c(c2)CCN4C(=O)CC3)cc1C | 40.1% | – | –
45 | CC(Nc1nc2ccccc2n2cnnc12)c1ccccc1 (stereo not drawn) | – | – | 0.103 µM [falling, full curve, poor fit]
46 | Cc1cc(NC(=O)c2c(-c3ccccc3Cl)noc2C)no1 | 2.65% | – | 16.4 µM [rising, partial curve]
47 | COc1ccc(CCN2C(=O)C3C4C=CC(C3C2=O)C2C(=O)N(CCc3ccc(OC)c(OC)c3)C(=O)C42)cc1OC (stereo not drawn) | 13.1% | 0.0058 µM [rising, full curve, poor fit] | 29.1 µM [rising, partial curve]
48 | COc1ccc(N2CCOCC2)c(NC(=O)c2cccnc2)c1 | 22.7% | – | 6.51 µM [falling, single point]
49 | CC(C)CNC(=O)C1CCN(CC2CCCCC2)CC1 | 17.5% | – | 2.59 µM [rising, full curve]
50 | COc1cc([N+](=O)[O-])ccc1NC(=O)COC(=O)C=C(C)C | 72.5% | 6.51 µM [rising, partial curve] | –
51 | Cc1cc(C)cc(NC(=O)C2CCN(S(=O)(=O)c3ccc4[nH]c(=O)ccc4c3)CC2)c1 | -0.576% | – | –
52 | CC(C)(C)NC(=O)CCn1nc(-c2ccc(Cl)cc2)c2ccccc2c1=O | – | – | 29.1 µM [falling, single point]
53 | CCCc1cc(C(=O)Nc2cccc(Cl)c2C)no1 | 33.3% | 10.3 µM [rising, partial curve, poor fit] | –
54 | O=C(NCc1cccnc1)c1ccc2c(c1)C(=O)N(Cc1ccccc1)C2=O | 18.5% | – | 0.517 µM [rising, full curve, poor fit]
55 | O=C(O)CCC(=O)N1N=C(c2c(-c3ccccc3)c3cc(Cl)ccc3[nH]c2=O)CC1c1ccco1 (stereo not drawn) | -54.8% | 23.1 µM [falling, single point] | 3.26 µM [falling, single point]
56 | CCC(CC)C(=O)Nc1nnc(-c2cccs2)s1 | -32.7% | 7.31 µM [falling, partial curve] | 0.13 µM [falling, full curve, poor fit]
57 | O=[N+]([O-])c1ccc(O)c(/C=N/Nc2nc3ccccc3[nH]2)c1 | -14.8% | – | 29.1 µM [falling, single point]
58 | CCC(CC)c1nnc(NC(=O)C23CC4CC(CC(NC(C)=O)(C4)C2)C3)s1 | -16.3% | – | 20 µM [falling, partial curve, poor fit]
